Reference: PubChem BioAssay AID504834 (National Center for Advancing Translational Sciences (NCATS), 2011)
Screen size: about 320,000 compounds; about 22,000 (6.9%) were called active. The inconclusive results got no clear call from the source; some entries with a clear call stand among them for comparison. Calls come from the whole dose curve; as a rule, active = well fitted inhibition curve with a large enough effect; inconclusive = small, poorly fitted or top-dose-only effect, or another doubt; inactive = no such curve, though single readings can be large or run the other way. Potencies of inconclusive entries are doubtful fits and often do not repeat.

Assay: Primary qHTS for delayed death inhibitors of the malarial parasite plastid, 96 hour incubation
Details: P. falciparum luciferase reporter growth; series mostly up to 28.7 µM; activity change, negative = inhibition: at the top concentration
Outline: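 Parasite growth measured via integrated firefly luciferase reporter in P. falciparum. Infected erythrocytes at 2% hematocrit, 0.05% parasitemia final were treated 96 hours at 37 C under 5% CO2, and luminescence was read.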
% is set by controls: 0 for no effect and ±100 for the full control effect; potency is the fitted concentration of half-maximal effect.

Which Potency does the source give for O=C(N/N=C/c1cc(Br)c(O)c(Br)c1)c1cccc(C(F)(F)F)c1 here?
The Potency was inconclusive: 0.0026 µM [inhibitor, full curve, poor fit].

Which Potency does the source give for Cc1ccc(Cl)cc1NC(=O)Cn1cc(C(F)(F)F)cc(Cl)c1=O here?
Its Potency is inconclusive: 18.5 µM [inhibitor, single point].

Which Potency does the source give for CN1C(=O)/C(=C/c2cn(CC(=O)N3CCCCC3)c3ccccc23)NC1=S here?
The Potency was inconclusive: 11.7 µM [inhibitor, single point].

Which “activity change, negative = inhibition” value does the source give for Oc1ccc(C[C@@H]2CNCCN2CCc2cccc(F)c2)cc1 here?
The value was inactive: 43.2%.

Which Potency does the source give for CCn1cc(C(=O)c2cccs2)c2ccccc21 here?
The Potency was inconclusive: 1.47 µM [inhibitor, full curve, poor fit].

Which Potency does the source give for COc1ccc(OC)c(CN2CCC(C(=O)N(C)CCc3ccc(OC)c(OC)c3)CC2)c1 here?
Its Potency is inconclusive: 10.4 µM [inhibitor, single point].

With C=C(C)CN(CC)Cc1c(C(=O)N(C)CCCC)nc2ccccn12 as the molecule, how does the Potency read?
Its Potency is active: 9.28 µM.

With Cc1cc(C)n2c(Nc3ccc4c(c3)OCCO4)c(-c3ccccc3)nc2n1 as the molecule, how does the Potency read?
Its Potency is inconclusive: 0.0738 µM [inhibitor, full curve, poor fit].

Which Potency does the source give for COc1cccc(OC)c1C(=O)NC(=S)N1CCN(c2ccc(C(F)(F)F)cc2[N+](=O)[O-])CC1 here?
The Potency was inconclusive: 3.29 µM [inhibitor, full curve, poor fit].

Which “activity change, negative = inhibition” value does the source give for CCC(=O)c1ccccc1OCCCN1CCC(Cc2ccccc2)CC1 here?
Its value is inactive: -12.3%.

With COc1ccc(-c2c(-c3cc(OC)cc(OC)c3)n(C)c3ccc(-c4ccc(N(C)C)nc4)cc23)cc1 as the molecule, how does the Potency read?
Its Potency is inconclusive: 2.33 µM [inhibitor, single point].

For CCOc1ccc(-c2cccc(NC(=O)c3ccco3)c2)nn1, which Potency is on record?
Its Potency is active: 10.4 µM.

With CC1CC(C)CN(c2oc(-c3ccco3)nc2C#N)C1 (stereo unspecified) as the molecule, how does the Potency read?
The Potency was inconclusive: 14.7 µM [inhibitor, partial curve].

With CC1=C(C(=O)OCc2ccccc2)C(/C=C/c2ccccc2)N2C(=O)CCSC2=N1 (stereo unspecified) as the molecule, how does the Potency read?
The Potency was inconclusive: 18.5 µM [inhibitor, single point].

With CCOC(=O)C1CCN(S(=O)(=O)c2ccc(OC)c(Cl)c2)CC1 as the molecule, how does the Potency read?
The Potency was inconclusive: 9.28 µM [inhibitor, partial curve, poor fit].

Which Potency does the source give for COc1cccc(NC(=O)N2CCCC2C(=O)NCc2ccccc2F)c1 (stereo unspecified) here?
Its Potency is active: 10.4 µM.

With CCCSC1=C(C#N)C(c2cc(OC)ccc2OC)CC(=O)N1 (stereo unspecified) as the molecule, how does the “activity change, negative = inhibition” value read?
Its value is inactive: -22.9%.

With CCOC(=O)c1ccc(Oc2nc(N(C)C)nc(N(C)C)n2)cc1 as the molecule, how does the Potency read?
Its Potency is inconclusive: 2.08 µM [inhibitor, partial curve, poor fit].

With COc1ccc(N2CCN(C(c3ccccc3OC)c3nnnn3Cc3ccco3)CC2)cc1 (stereo unspecified) as the molecule, how does the Potency read?
The Potency was inconclusive: 0.0586 µM [inhibitor, full curve, poor fit].

For COc1cccc(NC(=O)CNC(=O)c2ccc(OC)c(OC)c2)c1, which “activity change, negative = inhibition” value is on record?
The value was inactive: 14%.

Which Potency does the source give for CCCCCn1c(Sc2ncccn2)nc2c1c(=O)[nH]c(=O)n2C here?
Its Potency is inconclusive: 18.5 µM [inhibitor, single point].

With Cc1cccc(C)c1NC(=O)CNC(=O)C(C)N(C)CC(=O)Nc1ccc(F)cc1 (stereo unspecified) as the molecule, how does the “activity change, negative = inhibition” value read?
Its value is inactive: -25.4%.

Which Potency does the source give for Cc1ccc(-c2nn(-c3ccccc3)cc2C(=O)N2CCOCC2)cc1C here?
Its Potency is inconclusive: 9.28 µM [inhibitor, single point].

With Cc1nc2sccn2c(=O)c1S(=O)(=O)NCc1ccccc1Cl as the molecule, how does the Potency read?
Its Potency is inconclusive: 4.15 µM [inhibitor, partial curve].

For CCNC(=S)NNC(=O)c1ccncc1, which Potency is on record?
The Potency was inconclusive: 8.28 µM [inhibitor, single point].

With CC(/C=C/c1ccccc1)=N\NC(=O)CNC(=O)c1ccccc1Cl as the molecule, how does the “activity change, negative = inhibition” value read?
Its value is inactive: 6.02%.

For COc1cccc(/C=N/NC(=O)c2[nH]nc3c2CCc2ccccc2-3)c1, which “activity change, negative = inhibition” value is on record?
The value was inactive: -20.4%.

For C/C(=N\NC(=O)COc1ccc(C)cc1C(C)C)c1ccc(-n2ccnc2)cc1, which Potency is on record?
Its Potency is inconclusive: 18.5 µM [inhibitor, single point].

For COCCCNC(=O)CCCCCNS(=O)(=O)c1ccc(Br)cc1, which Potency is on record?
The Potency was inconclusive: 18.5 µM [inhibitor, single point].

Which “activity change, negative = inhibition” value does the source give for COc1ccc(CCN(Cc2cccs2)S(=O)(=O)c2ccc(-n3cnnn3)cc2)cc1OC here?
The value was inactive: 73.5%.

Which Potency does the source give for COc1cccc(CN(C)CC(=O)Nc2c(C)cccc2C(C)C)c1 here?
Its Potency is inconclusive: 9.28 µM [inhibitor, partial curve].

Which “activity change, negative = inhibition” value does the source give for Cc1[nH]c2ccccc2c1C(=O)C(=O)N1CCN(C)CC1 here?
The value was inactive: 47.7%.

Which Potency does the source give for CC(C)N(Cc1nc(-c2ccc(Cl)cc2)no1)C(=O)CCCN1C(=O)c2ccccc2C1=O here?
The Potency was inconclusive: 13.1 µM [inhibitor, single point].

For CC(=O)NC(=S)Nc1ccc(NC(=O)c2cccnc2Cl)cc1, which “activity change, negative = inhibition” value is on record?
The value was inactive: -3.55%.

With CCOC(=O)c1cnc(SC)nc1Oc1cccc(NS(=O)(=O)c2ccc(F)cc2)c1 as the molecule, how does the Potency read?
The Potency was inconclusive: 18.5 µM [inhibitor, partial curve, poor fit].

For COc1cccc(/C=C/c2ccc3cccc(O)c3n2)c1OC, which Potency is on record?
Its Potency is inconclusive: 2.94 µM [inhibitor, full curve, poor fit].

With CC/C(=N\NC(=O)C1CCCC1)c1cccc(Br)c1 as the molecule, how does the Potency read?
Its Potency is inconclusive: 13.1 µM [inhibitor, single point].

Which “activity change, negative = inhibition” value does the source give for Cc1ccc(S(=O)(=O)Nc2cccc(S(=O)(=O)N3CCCC3)c2)cc1C here?
The value was inactive: -4.85%.

For Cc1cc(NS(C)(=O)=O)c(=O)n(Cc2cccc(F)c2)c1, which Potency is on record?
Its Potency is active: 2.62 µM.

With CC(O)CNCCCOc1ccccc1OCc1ccccc1 (stereo unspecified) as the molecule, how does the “activity change, negative = inhibition” value read?
The value was inactive: 28.2%.

Which Potency does the source give for CC(=O)Nc1cc[n+](C(C)C(=O)c2ccccc2)cc1 (stereo unspecified) here?
The Potency was inconclusive: 13.1 µM [inhibitor, single point].

With S=C(Nc1cc(Cl)ccc1Oc1ccccc1)N1CCN(c2ccccn2)CC1 as the molecule, how does the “activity change, negative = inhibition” value read?
The value was inactive: -72.8%.

Which Potency does the source give for O=C(O)c1ccccc1SC1CC(=O)N(c2ccccc2)C1=O (stereo unspecified) here?
Its Potency is active: 2.08 µM.

Which Potency does the source give for CCOc1cc(/C=C2\C(=N)N3N=C(N4CCCCC4)SC3=NC2=O)ccc1OC(=O)c1ccco1 here?
Its Potency is inconclusive: 4.15 µM [inhibitor, partial curve, poor fit].

For S=C(c1ccc(N2CCOCC2)cc1)N1CCCCC1, which Potency is on record?
The Potency was inconclusive: 8.28 µM [inhibitor, partial curve, poor fit].

Which Potency does the source give for O=C(Nc1ccc2c(c1)OCCO2)C1CCN(C(=O)c2ccccc2)CC1 here?
The Potency was inconclusive: 13.1 µM [inhibitor, single point].

For Cc1cc(C)cc(N(CC(=O)NC2CCC(C)CC2)S(=O)(=O)c2c(C)[nH]c(=O)[nH]c2=O)c1 (stereo unspecified), which Potency is on record?
Its Potency is inconclusive: 18.5 µM [inhibitor, single point].

With O=C(NCc1ccoc1)c1ccc(NC(=O)c2ccccc2Cl)cc1 as the molecule, how does the Potency read?
The Potency was inconclusive: 11.7 µM [inhibitor, single point].

With CCN(CC)[C@@H](C)CN1c2ccccc2Sc2ccccc21 as the molecule, how does the Potency read?
Its Potency is active: 6.42 µM.

For COC(=O)C(Cc1ccccc1)N1CCS(=O)(=O)CC1 (stereo unspecified), which “activity change, negative = inhibition” value is on record?
Its value is inactive: 0.422%.

With CCOc1ccc(NC(=O)C2CCCN2C(=O)NC2CCCCC2)cc1 (stereo unspecified) as the molecule, how does the “activity change, negative = inhibition” value read?
Its value is inactive: 12.9%.

For CC(C)C[C@H](NC(=O)OC(C)(C)C)C(=O)N[C@@H](CO)[C@H](O)[C@@H]1C[C@@H]1C(=O)N1CCCC1, which Potency is on record?
The Potency was inconclusive: 18.5 µM [inhibitor, single point].

Which Potency does the source give for COc1ccc(NC(=O)c2ccc(-n3cncn3)c([N+](=O)[O-])c2)cc1 here?
Its Potency is inconclusive: 4.65 µM [inhibitor, partial curve].

Which “activity change, negative = inhibition” value does the source give for O=S(=O)(N/N=C1\CC(c2ccccc2)Oc2ccccc21)c1ccccc1 (stereo unspecified) here?
The value was inactive: 43.1%.

For CCN(CC)CCNC1=CC(=O)OC12CCCCC2, which Potency is on record?
Its Potency is active: 14.7 µM.

For C/C(=N\NC(N)=O)C1CC(CC(C)C)C(=O)O1 (stereo unspecified), which Potency is on record?
Its Potency is inconclusive: 18.5 µM [inhibitor, single point].

Which “activity change, negative = inhibition” value does the source give for CCOC(=O)c1sc(NC(=O)c2ccc3ncsc3c2)nc1C here?
The value was inactive: 17.9%.

With O=C(c1ccc(Oc2ccccc2)cc1)c1nc2c(n1O)CCCC2 as the molecule, how does the “activity change, negative = inhibition” value read?
The value was inactive: 0.964%.

For Cc1c(NC(=O)Nc2cccc(C#N)c2)c(=O)n(-c2ccccc2)n1C, which Potency is on record?
The Potency was active: 3.7 µM.

For O=C(CSc1nnc(NC2CCCCC2)s1)Nc1ccc2c(c1)C(=O)c1ccccc1C2=O, which “activity change, negative = inhibition” value is on record?
The value was inactive: -26.1%.

With CCOC(=O)C1=C(CN2CCN(C(=O)c3ccco3)CC2)NC(=O)NC1c1ccc(Cl)cc1 (stereo unspecified) as the molecule, how does the Potency read?
Its Potency is inconclusive: 0.0928 µM [inhibitor, full curve, poor fit].

For CCc1nc2ccccc2c(C(=O)NCc2ccc(OC)cc2)c1C, which “activity change, negative = inhibition” value is on record?
Its value is inactive: -18.8%.

For CC(Sc1ccc(Cl)cc1)C(=O)NCC(c1ccco1)N1CCCCC1 (stereo unspecified), which Potency is on record?
The Potency was inconclusive: 11.7 µM [inhibitor, single point].

With O=C(O)/C=C/c1cn(Cc2ccccc2)nc1-c1ccccc1 as the molecule, how does the “activity change, negative = inhibition” value read?
Its value is inactive: -1.23%.

With CCCC1N2CC3([N+](=O)[O-])CN1CC([N+](=O)[O-])(C2)C3(C)C (stereo unspecified) as the molecule, how does the Potency read?
The Potency was inconclusive: 4.15 µM [inhibitor, partial curve, poor fit].

For Cc1cc(=O)oc2cc(OC(=O)c3nn(C(C)C)c(=O)c4ccccc34)ccc12, which Potency is on record?
The Potency was inconclusive: 18.5 µM [inhibitor, single point].

With COc1ccc(Br)cc1[C@H]1[C@H]2C=CC[C@@H](C)[C@@H]2C(=O)N1Cc1ccccc1 as the molecule, how does the Potency read?
The Potency was inconclusive: 3.29 µM [inhibitor, partial curve, poor fit].

With CC1Cc2cc(S(=O)(=O)NCCc3ccccc3)ccc2N1C(=O)C1CC1 (stereo unspecified) as the molecule, how does the Potency read?
Its Potency is inconclusive: 1.65 µM [inhibitor, full curve, poor fit].

With CCc1c(C)nn(C(=O)/C(C#N)=C\N(C)C)c1C as the molecule, how does the activity change, negative = inhibition read?
Its activity change, negative = inhibition is inactive: -54.9% [at 1.15 µM].

Which Potency does the source give for O=C(COc1ccc(F)cc1)N(Cc1ccco1)C1CCS(=O)(=O)C1 (stereo unspecified) here?
The Potency was inconclusive: 18.5 µM [inhibitor, partial curve, poor fit].

For COc1cccc(OCCN2CCN(c3ncnc4c3cnn4-c3ccccc3)CC2)c1, which Potency is on record?
The Potency was active: 9.28 µM.
